# Measurements taken from the supplement of paper PMC8728848.
# Some of the results follow.
# Columns and labels:
# Assay in all cases: glycan array binding signal (z-score within array); higher = stronger binding
# Conditions in all cases: glycan notation: IUPAC condensed, linker removed
# [1] = target: Fuc(a1-2)Gal(b1-4)GlcNAc(b1-3)Gal(b1-4)GlcNAc(b1-2)Man(a1-3)[Fuc(a1-2)Gal(b1-4)GlcNAc(b1-3)Gal(b1-4)GlcNAc(b1-2)Man(a1-6)]Man(b1-4)GlcNAc(b1-4)GlcNAc
# Procedure, shortened: (§1)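 The binding signal is a Z-score computed within each array and averaged over linkers. Arrays of the same protein sequence at different concentrations or buffers were also averaged together. Data originate from 3228 arrays in the Consortium for Functional Glycomics database, kept only where the protein sequence was available.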
# [2] = target: Fuc(a1-2)Gal(b1-4)GlcNAc(b1-3)Gal(b1-4)GlcNAc(b1-3)Gal(b1-4)GlcNAc
# Procedure, shortened: as §1
# [3] = target: Fuc(a1-2)Gal(b1-4)GlcNAc(b1-3)GalNAc
# Procedure, shortened: as §1
# [4] = target: Fuc(a1-2)Gal(b1-4)GlcNAc(b1-3)[Fuc(a1-2)Gal(b1-4)GlcNAc(b1-6)]GalNAc
# Procedure, shortened: as §1
# [5] = target: Fuc(a1-2)Gal(b1-4)GlcNAc(b1-3)[Fuc(a1-3)[Gal(b1-4)]GlcNAc(b1-6)]Gal(b1-4)Glc
# Procedure, shortened: as §1
# [6] = target: Fuc(a1-2)Gal(b1-4)GlcNAc(b1-6)GalNAc
# Procedure, shortened: as §1
# [7] = target: Fuc(a1-2)Gal(b1-4)GlcNAc6S
# Procedure, shortened: as §1
# [8] = target: Fuc(a1-2)Gal(b1-4)[Fuc(a1-3)]GlcNAc
# Procedure, shortened: as §1
# [9] = target: Fuc(a1-2)Gal(b1-4)[Fuc(a1-3)]GlcNAc(b1-2)Man(a1-3)[Fuc(a1-2)Gal(b1-4)[Fuc(a1-3)]GlcNAc(b1-2)Man(a1-6)]Man(b1-4)GlcNAc(b1-4)[Fuc(a1-6)]GlcNAc
# Procedure, shortened: as §1
# [10] = target: Fuc(a1-2)Gal(b1-4)[Fuc(a1-3)]GlcNAc(b1-2)[Fuc(a1-2)Gal(b1-4)[Fuc(a1-3)]GlcNAc(b1-4)]Man(a1-3)[Fuc(a1-2)Gal(b1-4)[Fuc(a1-3)]GlcNAc(b1-2)Man(a1-6)]Man(b1-4)GlcNAc(b1-4)GlcNAc
# Procedure, shortened: as §1
# [11] = target: Fuc(a1-2)Gal(b1-4)[Fuc(a1-3)]GlcNAc(b1-3)Gal(b1-4)[Fuc(a1-3)]GlcNAc
# Procedure, shortened: as §1
# [12] = target: Fuc(a1-2)Gal(b1-4)[Fuc(a1-3)]GlcNAc(b1-3)Gal(b1-4)[Fuc(a1-3)]GlcNAc(b1-3)Gal(b1-4)[Fuc(a1-3)]GlcNAc
# Procedure, shortened: as §1
# [13] = target: Fuc(a1-2)Gal(b1-4)[Fuc(a1-3)]GlcNAc(b1-3)GalNAc
# Procedure, shortened: as §1
# [14] = target: Fuc(a1-2)Gal(b1-4)[Fuc(a1-3)]GlcNAc(b1-3)[Neu5Ac(a2-6)Gal(b1-4)GlcNAc(b1-6)]Gal(b1-4)Glc
# Procedure, shortened: as §1
# [15] = target: Fuc(a1-2)Gal3S(b1-4)GlcNAc
# Procedure, shortened: as §1
# [16] = target: Fuc(a1-2)Gal6S(b1-3)GlcNAc
# Procedure, shortened: as §1
# [17] = target: Fuc(a1-2)Gal6S(b1-3)GlcNAc6S
# Procedure, shortened: as §1
# [18] = target: Fuc(a1-2)Gal6S(b1-4)Glc
# Procedure, shortened: as §1
# [19] = target: Fuc(a1-2)Gal6S(b1-4)Glc6S
# Procedure, shortened: as §1
# [20] = target: Fuc(a1-2)[Gal(a1-3)]Gal
# Procedure, shortened: as §1
# [21] = target: Fuc(a1-2)[Gal(a1-3)]Gal(b1-3)GalNAc
# Procedure, shortened: as §1
# [22] = target: Fuc(a1-2)[Gal(a1-3)]Gal(b1-3)GalNAc(b1-3)Gal(a1-4)Gal(b1-4)Glc
# Procedure, shortened: as §1
# [23] = target: Fuc(a1-2)[Gal(a1-3)]Gal(b1-3)GlcNAc
# Procedure, shortened: as §1
# [24] = target: Fuc(a1-2)[Gal(a1-3)]Gal(b1-3)GlcNAc(b1-2)Man(a1-3)[Fuc(a1-2)[Gal(a1-3)]Gal(b1-3)GlcNAc(b1-2)Man(a1-6)]Man(b1-4)GlcNAc(b1-4)GlcNAc
# Procedure, shortened: as §1
# [25] = target: Fuc(a1-2)[Gal(a1-3)]Gal(b1-3)GlcNAc(b1-2)Man(a1-3)[Fuc(a1-2)[Gal(a1-3)]Gal(b1-3)GlcNAc(b1-2)Man(a1-6)]Man(b1-4)GlcNAc(b1-4)[Fuc(a1-6)]GlcNAc
# Procedure, shortened: as §1
# [26] = target: Fuc(a1-2)[Gal(a1-3)]Gal(b1-3)GlcNAc(b1-3)GalNAc
# Procedure, shortened: as §1
# [27] = target: Fuc(a1-2)[Gal(a1-3)]Gal(b1-3)GlcNAc(b1-6)GalNAc
# Procedure, shortened: as §1
# [28] = target: Fuc(a1-2)[Gal(a1-3)]Gal(b1-4)Glc
# Procedure, shortened: as §1
# [29] = target: Fuc(a1-2)[Gal(a1-3)]Gal(b1-4)GlcNAc
# Procedure, shortened: as §1
# [30] = target: Fuc(a1-2)[Gal(a1-3)]Gal(b1-4)GlcNAc(b1-2)Man
# Procedure, shortened: as §1
binder,measurement,setting,value
"SHCBP1-GST (Homo sapiens), Q8NEM2 (protein) MADGSLTGGGLEAAAMAPERMGWAVEQELASLEKGLFQDEDSCSDCSYRDKPGSSLQSFMPEGKTFFPEIFQTNQLLFYERFRAYQDYILADCKASEVQEFTAEFLEKVLEPSGWRAVWHTNVFKVLVEITDVDFAALKAVVRLAEPYLCDSQVSTFTMECMKELLDLKEHRLPLQELWVVFDDSGVFDQTALAIEHVRFFYQNIWRSWDEEEEDEYDYFVRCVEPRLRLHYDILEDRVPSGLIVDYHNLLSQCEESYRKFLNLRSSLSNCNSDSEQENISMVEGLKLYSEMEQLKQKLKLIENPLLRYVFGYQKNSNIQAKGVRSSGQKITHVVSSTMMAGLLRSLLTDRLCQEPGEEEREIQFHSDPLSAINACFEGDTVIVCPGHYVVHGTFSIADSIELEGYGLPDDIVIEKRGKGDTFVDCTGADIKISGIKFVQHDAVEGILIVHRGKTTLENCVLQCETTGVTVRTSAEFLMKNSDLYGAKGAGIEIYPGSQCTLSDNGIHHCKEGILIKDFLDEHYDIPKISMVNNIIHNNEGYGVVLVKPTIFSDLQENAEDGTEENKALKIQTSGEPDVAERVDLEELIECATGKMELCARTDPSEQVEGNCEIVNELIAASTQKGQIKKKRLSELGITQADDNLMSQEMFVGIVGNQFKWNGKGSFGTFLF",glycan array binding signal (z-score),[1],0.277
same,glycan array binding signal (z-score),[2],0.091
same,glycan array binding signal (z-score),[3],0.559
same,glycan array binding signal (z-score),[4],-0.881
same,glycan array binding signal (z-score),[5],-0.338
same,glycan array binding signal (z-score),[6],0.361
same,glycan array binding signal (z-score),[7],0.614
same,glycan array binding signal (z-score),[8],-0.113
same,glycan array binding signal (z-score),[9],0.791
same,glycan array binding signal (z-score),[10],2.02
same,glycan array binding signal (z-score),[11],-0.224
same,glycan array binding signal (z-score),[12],-0.139
same,glycan array binding signal (z-score),[13],0.03
same,glycan array binding signal (z-score),[14],-0.093
same,glycan array binding signal (z-score),[15],-0.831
same,glycan array binding signal (z-score),[16],-0.631
same,glycan array binding signal (z-score),[17],0.871
same,glycan array binding signal (z-score),[18],-0.588
same,glycan array binding signal (z-score),[19],-1.23
same,glycan array binding signal (z-score),[20],-0.274
same,glycan array binding signal (z-score),[21],-0.106
same,glycan array binding signal (z-score),[22],-0.847
same,glycan array binding signal (z-score),[23],-0.247
same,glycan array binding signal (z-score),[24],-0.019
same,glycan array binding signal (z-score),[25],-0.945
same,glycan array binding signal (z-score),[26],0.014
same,glycan array binding signal (z-score),[27],-0.394
same,glycan array binding signal (z-score),[28],0.71
same,glycan array binding signal (z-score),[29],-0.089
same,glycan array binding signal (z-score),[30],0.257
